# Data as given in paper PMC10850148.
# Legend:
# Assay in all cases: pull-down; about 200 μg purified GST-fused protein on GST beads, equal amount of target protein, 1 h, 4 °C; 20 mM Tris-HCl, 400 mM NaCl; glutathione elution, Coomassie staining; both purified
# [1] = target: GST-tagged OY-M SAP05 D106A (onion yellows phytoplasma (OY-M; Candidatus Phytoplasma asteris))
# [2] = target: GST-tagged OY-M SAP05 E107A (onion yellows phytoplasma (OY-M; Candidatus Phytoplasma asteris))
# [3] = target: GST-tagged OY-M SAP05 W85A (onion yellows phytoplasma (OY-M; Candidatus Phytoplasma asteris))
binder,measurement,setting,value
"AtSPL5 ZnF domain (residues 60-124) (domain or fragment, UniProt Q9S758 60-124) SRLCQVDRCTVNLTEAKQYYRRHRVCEVHAKASAATVAGVRQRFCQQCSRFHELPEFDEAKRSCR",binding,[1],no binding
same,binding,[2],binds
same,binding,[3],no binding

# Results are given in words; binding and its absence hold for the method and conditions named. For part of these data: Binding calls can cover weak binding; strength is not graded here.
